# Experimental data as given in the supplement of paper PMC8104966.
# Where a name gives a salt, the structure may show the parent alone. ± gives the standard deviation of the averaged measurements. This is one part of the list. Repeats in this data set agree poorly, so a single value says little.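 Fusion between ACE2-bearing and full-length-spike-bearing U2OS cells was measured by imaging as the percentage of nuclei with both cell types' fluorescent markers. An inhibitory hit is a non-toxic compound whose fusion z-score is below -3, more than three standard deviations beneath the plate's DMSO wells.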
# System: U2OS ACE2 x SARS-CoV-2 spike co-culture
# Test: cell-cell fusion (fraction fused) z-score vs plate DMSO control; higher = more fusion
# Conditions: 30 µM; 5 h; toxicity class: non-toxic, passed QC
row,Compound,cell-cell fusion (z-score)
1,CCC(C(N)=O)c1ccccc1 (centres undefined),inactive: 0.448
2,CO[C@H]1C[C@@H]2CC[C@@H](C)[C@@](O)(O2)C(=O)C(=O)N2CCCC[C@H]2C(=O)O[C@H]([C@@H](C)C[C@@H]2CC[C@@H](OCCO)[C@H](OC)C2)CC(=O)[C@H](C)/C=C(\C)[C@H](O)[C@@H](OC)C(=O)[C@H](C)C[C@H](C)/C=C/C=C/C=C/1C [Everolimus (RAD001)],-3.72 ± 8.1
3,NS(=O)(=O)c1cc(C(=O)O)c(NCc2ccco2)cc1Cl,inactive: 0.661
4,CC(C)(O)CC(=O)NCCn1ccc2ncnc(Nc3ccc(Oc4cccc(C(F)(F)F)c4)c(Cl)c3)c21,active: -15
5,CC[C@H]1CN2CCc3cc(OC)c(OC)cc3[C@@H]2C[C@@H]1C[C@H]1NCCc2cc(OC)c(OC)cc21.Cl.Cl [Emetine dihydrochloride hydrate],inactive: -1.09
6,NCCCC[C@H](N[C@@H](CCc1ccccc1)C(=O)O)C(=O)N1CCC[C@H]1C(=O)O.O.O [Lisinopril dihydrate],inactive: 1.74
7,N#CC(c1ccc(Cl)cc1)c1c(Cl)cc(-n2ncc(=O)[nH]c2=O)cc1Cl (centres undefined),inactive: 0.333
8,CC(=O)c1ccc2c(c1)N(CCCN1CCC(CCO)CC1)c1ccccc1S2,inactive: 3.83
9,COc1ccc(CNC(=O)Nc2ncc([N+](=O)[O-])s2)cc1,inactive: 0.848
10,CO/N=C1\CN(c2nc3c(cc2F)c(=O)c(C(=O)O)cn3C2CC2)CC1CN.CS(=O)(=O)O (centres undefined) [Gemifloxacin mesylate],inactive: 0.874
11,Clc1ccc(C(Cn2ccnc2)OCc2ccsc2Cl)c(Cl)c1 (centres undefined) [Vagistat],inactive: 1.8
12,Cc1cccc(Nc2ccncc2S(=O)(=O)NC(=O)NC(C)C)c1 [Torasemide],inactive: 2.09
13,Cl.c1ccc(C2CC2)c(OCC2=NCCN2)c1 [Cirazoline hydrochloride],inactive: 3.89
14,CN(C)[C@@H]1C(O)=C(C(N)=O)C(=O)[C@@]2(O)C(O)=C3C(=O)c4c(O)cccc4[C@@](C)(O)[C@H]3C[C@@H]12 [Tetracycline],inactive: 1.25
15,CC(=O)Nc1ccc(OC[C@](C)(O)C(=O)Nc2ccc([N+](=O)[O-])c(C(F)(F)F)c2)cc1 [Andarine (GTX-007)],inactive: 1.34
16,Cn1cc(C2=C(c3cn(C4CCN(Cc5ccccn5)CC4)c4ccccc34)C(=O)NC2=O)c2ccccc21,inactive: 2.27
17,CN(C)/N=N/c1[nH]cnc1C(N)=O,inactive: 0.456
18,NC(CO)(CO)CO.O=C(c1ccccc1)c1ccc2n1CCC2C(=O)O (centres undefined) [Ketorolac tromethamine salt],inactive: 0.297
19,O=C(O)/C=C/C=C/c1ccccc1,inactive: 2.62
20,Br.CCCN(CCC)C1CCc2ccc(O)cc2C1 (racemic) [(±)-7-Hydroxy-DPAT hydrobromide],inactive: 0.623
21,CN[C@@H]1[C@@H](O)[C@@H](O[C@@H]2[C@@H](O)[C@H](O[C@H]3O[C@H]([C@@H](C)NC)CC[C@H]3N)[C@@H](N)C[C@H]2N)OC[C@]1(C)O.O=S(=O)(O)O [Gentamycin sulfate],inactive: 2.65
22,O=S(=O)(c1cccc2cnccc12)N1CCCNCC1,inactive: 3.69

row,Compound,cell-cell fusion (z-score)
1,N[C@@H](Cc1cc(I)c(Oc2cc(I)c(O)c(I)c2)c(I)c1)C(=O)O [L-Thyroxine],inactive: 3.34
2,C/C=C(\C)C(=O)O[C@H]1C[C@@H](OC(C)=O)[C@@]2(C(=O)OC)CO[C@@H]3C2[C@]12CO[C@](O)(C(=O)OC)[C@H]2[C@](C)(C12O[C@@]1(C)[C@H]1C[C@@H]2OC2OC=C[C@@]21O)[C@@H]3O (some centres undefined),inactive: 1.3
3,NC(CO)(CO)CO,inactive: 2.71
4,NC(CO)(CO)CO [Trometamol],inactive: 4.19
5,CC(=O)c1c(O)c(C)c(O)c(Cc2c(O)c3c(c(C(=O)/C=C/c4ccccc4)c2O)OC(C)(C)C=C3)c1O [Rottlerin],inactive: 2.18
6,CC[C@H](C)[C@H](N)C(=O)O [isoleucine],inactive: 2.47
7,O=C1CC(c2ccccc2)Oc2ccccc21 (centres undefined),inactive: 2.08
8,CCN(CC)CCCC(C)Nc1ccnc2cc(Cl)ccc12.O=P(O)(O)O.O=P(O)(O)O (centres undefined) [Chloroquine diphosphate],inactive: 0.987
9,CC(=O)O[C@H]1C(=O)[C@@]2(C)C([C@H](OC(=O)c3ccccc3)[C@]3(O)C[C@H](OC(=O)[C@H](O)[C@@H](NC(=O)c4ccccc4)c4ccccc4)C(C)=C1C3(C)C)[C@]1(OC(C)=O)CO[C@@H]1C[C@@H]2O (some centres undefined),inactive: 1.61
10,Cl.NCC(CC(=O)O)c1ccc(Cl)cc1 (racemic),inactive: 3.71
11,CN1C(=O)C(O)N=C(c2ccccc2)c2cc(Cl)ccc21 (centres undefined),inactive: 1.14
12,O[C@H]1[C@H](O)[C@@H](O)C2OC[C@H]1O2,inactive: 2.55
13,"O=c1cc(-c2ccccc2)oc2c(O)c(O)ccc12 [7,8-Dihydroxyflavone hydrate]",inactive: 1.34
14,NC[C@@H]1CC[C@@H](N)[C@@H](O[C@H]2[C@H](O)[C@@H](O[C@H]3O[C@H](CO)[C@@H](O)[C@H](N)[C@H]3O)[C@H](N)C[C@@H]2N)O1,inactive: 1.59
15,COc1ccccc1OCCNCC(O)COc1cccc2[nH]c3ccccc3c12 (centres undefined),inactive: 2.34
16,COc1cc(O)cc(O)c1C(=O)c1ccccc1,inactive: 2.99
17,O=C(O)C(O)C(O)C(=O)O.O=C(c1ccc(F)cc1)C1CCN(CCn2c(=O)[nH]c3ccccc3c2=O)CC1 [Ketanserin tartrate],inactive: 0.119
18,c1ccc(/N=N\c2ccccc2)cc1,inactive: 2.54
19,Cc1ncc(CNC(=O)N(CCCl)N=O)c(N)n1 [Nimustine hydrochloride],inactive: 1.66
20,Cc1ncc(CNC(=O)N(CCCl)N=O)c(N)n1,inactive: 1.41
21,CC[P](CC)(CC)=[Au][S][C@@H]1O[C@H](COC(C)=O)[C@@H](OC(C)=O)[C@H](OC(C)=O)[C@H]1OC(C)=O [Auranofin],inactive: 1.03
22,CC1(C)CC[C@]2(C)CC[C@]3(C)C(=CCC4[C@@]5(C)CC[C@H](O)C(C)(C)C5CC[C@]43C)C2C1 (stereo partly drawn) [beta-AMYRIN],inactive: 1.35

row,Compound,cell-cell fusion (z-score)
1,C#CCCCCCCCCCCCC(O)CC(O)COC(C)=O.C=CCCCCCCCCCCCC(O)CC(O)COC(C)=O (centres undefined),inactive: 0.82
2,CS(=O)(=O)O.Cn1cc(C(F)(F)F)nc1-c1ccc(OCC(O)CNCCOc2ccc(O)c(C(N)=O)c2)cc1 (centres undefined),inactive: 0.916
3,Cc1c(OCC(F)(F)F)ccnc1CS(=O)c1nc2ccccc2[nH]1 (centres undefined) [Lansoprazole],inactive: 0.392
4,Cl.O=C1c2cccc3c2[C@H](CCC3)CN1[C@@H]1CN2CCC1CC2 [Palonosetron hydrochloride],inactive: 0.761
5,CN[C@H]1CC[C@@H](c2ccc(Cl)c(Cl)c2)c2ccccc21.Cl [Sertraline hydrochloride],inactive: -1.3
6,CCO.C[C@H]1c2cccc(O)c2C(O)=C2C(=O)[C@]3(O)C(O)=C(C(N)=O)C(=O)[C@@H](N(C)C)[C@@H]3[C@@H](O)[C@@H]21.C[C@H]1c2cccc(O)c2C(O)=C2C(=O)[C@]3(O)C(O)=C(C(N)=O)C(=O)[C@@H](N(C)C)[C@@H]3[C@@H](O)[C@@H]21.Cl.Cl.O [Doxycycline hyclate],inactive: 1.86
7,CC[C@]12CCCN3CCc4c(n(c5ccccc45)[C@](O)(C(=O)OC)C1)[C@@H]32,inactive: 0.666
8,CC(O)(CS(=O)(=O)c1ccc(F)cc1)C(=O)Nc1ccc(C#N)c(C(F)(F)F)c1 (centres undefined) [Bicalutamide (CDX)],inactive: 2.03
9,CC(O)(CS(=O)(=O)c1ccc(F)cc1)C(=O)Nc1ccc(C#N)c(C(F)(F)F)c1 (centres undefined),inactive: 1.32
10,C[N+](C)(C)CCCCCCCCCC[N+](C)(C)C.[Br-].[Br-] [Decamethonium dibromide],inactive: 2.76
11,C[N+](C)(C)CCCCCCCCCC[N+](C)(C)C.[Br-].[Br-],inactive: 2.44
12,Oc1c(Cl)cc(Cl)c(Cl)c1Cc1c(O)c(Cl)cc(Cl)c1Cl,inactive: 1.09
13,CC1(C)C(=O)C=C[C@@]2(C)C1CC(=O)[C@@]1(C)C3=CC(=O)O[C@@H](c4ccoc4)[C@]3(C)CCC12 (some centres undefined),inactive: 3.11
14,CC(=O)[N-]S(=O)(=O)c1ccc(N)cc1.O.[Na+] [Sulfacetamide sodium salt hydrate],inactive: 1.69
15,CN(C)C(=O)Oc1cc(OC(=O)N(C)C)cc(C(O)CNC(C)(C)C)c1.Cl (centres undefined),inactive: 1.41
16,CC(=O)NCCc1c[nH]c2ccc(O)cc12 [N-Acetyl-5-hydroxytryptamine],inactive: 1.58
17,CC(C)(Sc1cc(C(C)(C)C)c(O)c(C(C)(C)C)c1)Sc1cc(C(C)(C)C)c(O)c(C(C)(C)C)c1,inactive: 0.161
18,COC(=O)C1[C@H]2C[C@H]3c4[nH]c5ccccc5c4CCN3C[C@@H]2CC[C@@H]1O.Cl (some centres undefined),inactive: 1.7
19,N#Cc1ccc2[nH]c(O)c(-c3ccc(CN4CCOCC4)cn3)c2c1,inactive: 2.72
20,N=C(N)NS(=O)(=O)c1ccc(N)cc1,inactive: 2.35

# A stretch from the list above:
row,Compound,cell-cell fusion (z-score)
4,Cl.O=C1c2cccc3c2[C@H](CCC3)CN1[C@@H]1CN2CCC1CC2 [Palonosetron hydrochloride],inactive: 0.761
5,CN[C@H]1CC[C@@H](c2ccc(Cl)c(Cl)c2)c2ccccc21.Cl [Sertraline hydrochloride],inactive: -1.3
